These results are taken from publication PMC4838231.

Assay [1] deals with T1, Kin2-C6Δ42 (a.a. 780–1105), Gal4 DNA-binding domain fusion (S. cerevisiae) (UniProt P13186).
T1 sequence: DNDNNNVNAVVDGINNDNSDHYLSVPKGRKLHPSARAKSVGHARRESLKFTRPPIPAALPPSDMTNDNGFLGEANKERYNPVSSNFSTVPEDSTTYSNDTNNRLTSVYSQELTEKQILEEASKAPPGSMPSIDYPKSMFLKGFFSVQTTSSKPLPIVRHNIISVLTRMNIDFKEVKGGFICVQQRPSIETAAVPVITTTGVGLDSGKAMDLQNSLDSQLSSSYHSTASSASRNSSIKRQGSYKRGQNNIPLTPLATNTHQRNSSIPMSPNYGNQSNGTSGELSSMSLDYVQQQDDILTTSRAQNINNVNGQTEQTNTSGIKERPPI
Kind of assay: two-hybrid; directed assay: pJ69-4α with pGBDU-C1-based baits mated with pJ69-4A with pOAD- or pGAD-based preys; growth of diploids on SC-Leu-Ura-His (with 3 mM 3-AT for Bmh1) or SC-Leu-Ura-Ade at 30°C for 3 days.

For assay [2], the target named is T2, Kin2-C9Δ42 (TD2 domain of Kin2 without the last 42 a.a.), Gal4 DNA-binding domain fusion (S. cerevisiae) (UniProt P13186).
T2 sequence: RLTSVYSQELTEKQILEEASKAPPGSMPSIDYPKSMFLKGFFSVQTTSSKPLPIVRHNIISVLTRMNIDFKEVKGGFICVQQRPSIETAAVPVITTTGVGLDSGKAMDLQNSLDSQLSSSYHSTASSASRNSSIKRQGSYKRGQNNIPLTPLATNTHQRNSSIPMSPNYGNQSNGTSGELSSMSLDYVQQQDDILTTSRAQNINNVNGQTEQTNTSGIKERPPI
The description is as above.

In assay [3] the target is T3, Kin2-Δ42 (Gal4 DNA-binding domain fusion from pGBDU-KIN2-Δ42) (S. cerevisiae) (UniProt P13186).
T3 sequence: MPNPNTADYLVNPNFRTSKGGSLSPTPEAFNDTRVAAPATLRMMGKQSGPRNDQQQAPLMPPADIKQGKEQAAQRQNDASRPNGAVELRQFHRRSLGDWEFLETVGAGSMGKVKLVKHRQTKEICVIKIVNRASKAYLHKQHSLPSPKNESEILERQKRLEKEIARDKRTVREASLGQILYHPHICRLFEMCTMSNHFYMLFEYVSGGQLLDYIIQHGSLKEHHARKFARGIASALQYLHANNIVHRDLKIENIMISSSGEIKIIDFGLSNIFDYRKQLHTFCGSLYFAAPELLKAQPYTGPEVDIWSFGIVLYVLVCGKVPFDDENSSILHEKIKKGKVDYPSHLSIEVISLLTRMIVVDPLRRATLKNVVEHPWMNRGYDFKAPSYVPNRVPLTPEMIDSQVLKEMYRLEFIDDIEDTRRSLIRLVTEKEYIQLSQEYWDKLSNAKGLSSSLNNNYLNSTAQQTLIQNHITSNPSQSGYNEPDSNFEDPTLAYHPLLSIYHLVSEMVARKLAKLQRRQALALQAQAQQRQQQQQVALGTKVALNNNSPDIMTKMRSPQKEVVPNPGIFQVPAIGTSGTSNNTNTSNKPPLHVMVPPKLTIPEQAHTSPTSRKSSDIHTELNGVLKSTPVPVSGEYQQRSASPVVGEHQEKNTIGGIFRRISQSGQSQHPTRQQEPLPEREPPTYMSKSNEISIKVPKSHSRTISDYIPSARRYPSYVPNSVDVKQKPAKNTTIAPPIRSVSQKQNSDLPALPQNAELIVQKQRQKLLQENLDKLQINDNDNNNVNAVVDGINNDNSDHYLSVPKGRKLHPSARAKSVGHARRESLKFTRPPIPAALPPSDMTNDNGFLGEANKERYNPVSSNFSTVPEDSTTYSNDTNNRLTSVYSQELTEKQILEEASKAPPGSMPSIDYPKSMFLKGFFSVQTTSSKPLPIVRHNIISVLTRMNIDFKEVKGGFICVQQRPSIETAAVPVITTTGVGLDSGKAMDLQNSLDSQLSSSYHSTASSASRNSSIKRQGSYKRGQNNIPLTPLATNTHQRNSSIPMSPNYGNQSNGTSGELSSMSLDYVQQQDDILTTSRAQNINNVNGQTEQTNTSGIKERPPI
Briefly: two-hybrid; library screens in yeast strain pJ69-4A or pJ69-4α with a pOAD-cDNA prey library; baits in pGBDU (Gal4 DBD); selection on SC-Leu-Ura-His with 3 mM 3-AT at 30°C, then SC-Leu-Ura-Ade; inserts sequenced.

In assay [4] the target is T4, Kin2-C6 (a.a. 780–1147), Venus-C fusion from pVC1-KIN2-C6 (S. cerevisiae) (UniProt P13186).
T4 sequence: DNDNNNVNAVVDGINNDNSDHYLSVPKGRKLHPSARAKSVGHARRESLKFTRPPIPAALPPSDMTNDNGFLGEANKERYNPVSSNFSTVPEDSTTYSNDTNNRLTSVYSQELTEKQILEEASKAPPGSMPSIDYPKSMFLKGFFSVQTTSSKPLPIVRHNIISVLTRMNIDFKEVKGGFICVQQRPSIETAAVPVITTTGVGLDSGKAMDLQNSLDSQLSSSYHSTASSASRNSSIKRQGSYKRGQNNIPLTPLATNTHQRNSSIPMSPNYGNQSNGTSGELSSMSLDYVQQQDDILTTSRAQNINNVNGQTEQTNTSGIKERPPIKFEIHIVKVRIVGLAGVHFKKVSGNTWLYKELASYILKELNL
Kind of assay: split reporter; BiFC with Venus-N (pVN1) and Venus-C (pVC1) fusions under the MET25 promoter in strain JGY3088 (kin1Δ kin2Δ); SC-His-Ura plate, 30°C, 16 hr; green fluorescence by microscopy.

Results are given in words; binding and its absence hold for the method and conditions named. For some of these results: Binding seen in cells or lysates may run through a third protein. Some entries that bind do so weakly or less than the wild type. Sequences can lack the tags named with a protein.

B1: Cdc11^72-415 (N-terminally truncated Cdc11), Gal4 activation domain fusion from pOAD (domain or fragment, UniProt P32458 72-415)
chain: TVELEDDEGVKIQLNIIDTPGFGDSLDNSPSFEIISDYIRHQYDEILLEESRVRRNPRFKDGRVHCCLYLINPTGHGLKEIDVEFIRQLGSLVNIIPVISKSDSLTRDELKLNKKLIMEDIDRWNLPIYNFPFDEDEISDEDYETNMYLRTLLPFAIIGSNEVYEMGGDVGTIRGRKYPWGILDVEDSSISDFVILRNALLISHLHDLKNYTHEILYERYRTEALSGESVAAESIRPNLTKLNGSSSSSTTTRRNTNPFKQSNNINNDVLNPASDMHGQSTGENNETYMTREEQIRLEEERLKAFEERVQQELLLKRQELLQREKELREIEARLEKEAKIKQEE
In the case of B1, the values for the binding result in assay [1], in assay [2] and in assay [3] were “binds”, “no binding” and “binds”, respectively.

B2: Pea2 (Venus-N fusion from pVN1-PEA2) (protein, UniProt P40091 1-420)
chain: MHKFDLELSRRANPLLFSAERYEEYPLKYDELKQYLLSQNPSHPHHNSRPYTSIDYFDYLLYRSKNDESEIDLDKKLVSEFALYYVQKEHLNSDDLNPTLNELLKLQPKSADWYEMMLRILESINTTGIDQLTKENNNSFPNSKRARSSTNMGGTDKFNKGAYHTDKADDDKNEILQELTSFLMSNSIQKGIDIKPIPLDDPVKFLKNGINSILDTCVSLEKNTSSPPISPNAAAIQEEDSSKKLEELETAFSDLQLAHNFLTKQFENDRAEYVQDIEKLTRTNRELQDKLLNNHSNLSKTEKKLHELEQENKELEKANNKLNSSRHNFGMSSPASSPVTWDPSSPSSVGSPTSGSGSRSLSIMTSEFKKVLTSTQRKYEKELSDEREHRFKLERELALLKNAEANTSLALNRDDPPDML
Consider B2, for which the binding entry in assay [4] is “binds”.
